In patent publication US20250332300A1 (priority 2024, published 2025):

What was measured:
[1] = general procedure: Fmoc solid-phase peptide synthesis; Fmoc-Rink Amide ProTide resin, Fmoc-Rink Amide AM resin, Fmoc-Sieber resin or Fmoc-Lys(Boc)-Wang resin; DIC/Oxyma Pure; HATU; PyAOP; DIPEA as base; details: for step yield: late stage modification step; for cyclisation yield: cyclisation step
[2] = general procedure: Fmoc solid-phase peptide synthesis; Rink amide resin R1; DIC/Oxyma Pure; HATU; PyAOP; DIPEA as base; details: whole synthesis, scale 0.300 mmol, TFA salt

Substance: (3S,6S,9S,12S,15S,18S,21S,24S,27S)-9-((1H-indol-3-yl)methyl)-27-acetamido-15-(4-acetamidobutyl)-N—((S)-1-(((S)-1-amino-6-(6-fluoronicotinamido)-1-oxohexan-2-yl)amino)-3-(4-fluorophenyl)-1-oxopropan-2-yl)-6-cyclopropyl-12-((5-hydroxy-1H-indol-3-yl)methyl)-24-(4-hydroxybenzyl)-21-(hydroxymethyl)-N,4,16,19-tetramethyl-5,8,11,14,17,20,23,26,31-nonaoxo-18-phenethyl-1,4,7,10,13,16,19,22,25-nonaazacyclohentriacontane-3-carboxamide TFA salt
- step yield ([1]; TFA salt): 90% yield

Substance: (3S,6S,9S,12S,15S,18S,21S,24S,27S)-9-((1H-indol-3-yl)methyl)-27-acetamido-15-(4-acetamidobutyl)-N—((S)-1-(((S)-1-amino-6-azido-1-oxohexan-2-yl)amino)-3-(4-fluorophenyl)-1-oxopropan-2-yl)-6-cyclopropyl-12-((5-hydroxy-1H-indol-3-yl)methyl)-24-(4-hydroxybenzyl)-21-(hydroxymethyl)-N,4,16,19-tetramethyl-5,8,11,14,17,20,23,26,31-nonaoxo-18-phenethyl-1,4,7,10,13,16,19,22,25-nonaazacyclohentriacontane-3-carboxamide
- cyclisation yield ([1]; on A40-1, TFA salt): 51% yield

Substance: (3S,6S,9S,12S,15S,18S,21S,24S,27S)-9-((1H-indol-3-yl)methyl)-27-acetamido-N—((S)-1-amino-3-(4-fluorophenyl)-1-oxopropan-2-yl)-6-cyclopropyl-12-((5-hydroxy-1H-indol-3-yl)methyl)-15,21-bis(hydroxymethyl)-24-((6-hydroxypyridin-3-yl)methyl)-N,4,16,19-tetramethyl-5,8,11,14,17,20,23,26,30-nonaoxo-18-phenethyl-1,4,7,10,13,16,19,22,25-nonaazacyclotriacontane-3-carboxamide
- cyclisation yield ([1]; on A1-1, TFA salt): 19% yield

Substance: (3S,6S,9S,12S,15S,18S,21S,24S,27S)-9-((1H-indol-3-yl)methyl)-27-acetamido-N—((S)-1-amino-3-(4-fluorophenyl)-1-oxopropan-2-yl)-6-cyclopropyl-12-((5-hydroxy-1H-indol-3-yl)methyl)-24-(4-hydroxybenzyl)-15,21-bis(hydroxymethyl)-N,4,16,19-tetramethyl-5,8,11,14,17,20,23,26,30-nonaoxo-18-phenethyl-1,4,7,10,13,16,19,22,25-nonaazacyclotriacontane-3-carboxamide
- cyclisation yield ([1]; on A25-2, TFA salt): 20% yield

Substance: (3S,6S,9S,12S,15S,18S,21S,24S,27S)-9-((1H-indol-3-yl)methyl)-27-amino-N—((S)-1-amino-3-(4-fluorophenyl)-1-oxopropan-2-yl)-6-cyclopropyl-12-((5-hydroxy-1H-indol-3-yl)methyl)-24-(4-hydroxybenzyl)-15,21-bis(hydroxymethyl)-N,4,16,19-tetramethyl-5,8,11,14,17,20,23,26,30-nonaoxo-18-phenethyl-1,4,7,10,13,16,19,22,25-nonaazacyclotriacontane-3-carboxamide TFA 5 salt
- cyclisation yield ([1]; TFA salt): 35% yield

Substance: (6S,9S,12S,15S,18S,21S,24S,27S,30S)-12-((1H-indol-3-yl)methyl)-30-acetamido-18-(4-acetamidobutyl)-N—((S)-1-(((S)-1-amino-6-azido-1-oxohexan-2-yl)amino)-3-(4-fluorophenyl)-1-oxopropan-2-yl)-9-cyclopropyl-15-((5-hydroxy-1H-indol-3-yl)methyl)-27-(4-hydroxybenzyl)-24-(hydroxymethyl)-N,7,19,22-tetramethyl-3,8,11,14,17,20,23,26,29-nonaoxo-21-phenethyl-1-oxa-4,7,10,13,16,19,22,25,28-nonaazacyclohentriacontane-6-carboxamide
- step yield ([1]; on A49-3, TFA salt): 28% yield

Substance: (6S,9S,12S,15S,18S,21S,24S,27S,30S)-12-((1H-indol-3-yl)methyl)-30-amino-N—((S)-1-amino-3-(4-fluorophenyl)-1-oxopropan-2-yl)-9-cyclopropyl-15-((5-hydroxy-1H-indol-3-yl)methyl)-27-(4-hydroxybenzyl)-18,24-bis(hydroxymethyl)-N,7,19,22-tetramethyl-3,8,11,14,17,20,23,26,29-nonaoxo-21-phenethyl-4,7,10,13,16,19,22,25,28-nonaaza-1 (1,3)-benzenacyclohentriacontaphane-6-carboxamide TFA salt
- cyclisation yield ([1]; TFA salt): 23% yield

Substance: NAc-hE-Y-S-NMehF-MeKAc-W(5OH)-W-cProG-NMeDap-NMeF(4F)—K(N3)-propargyl-Gly-SAR14-K(DOTA)-SAR14-NAc-propargyl-Gly-K(N3)-NMeF(4F)-NMeDap-cProG-W-W(5OH)-MeKAc-NMehF-S—Y-NAc-hE
- conjugation yield ([1]; conjugation step, TFA salt): 69% yield

Substance: NAc-propargyl-Gly-SAR14-Lys(Alloc)-SAR14-propargyl-Gly-NH2
- isolated mass [2]: 151 mg
- isolated yield [2]: 20.5% yield
